Assay results reported in patent US12496349B2, “Macromolecular prodrug-based thermosensitive injectable gel as a novel drug delivery platform” (priority 2018, dated 2025).

Test system: monoiodoacetate-induced osteoarthritis (MIA) mice model
Details: mouse, in vivo

SMILES: C[C@@H]1C[C@H]2[C@@H]3CCC4=CC(=O)C=C[C@]4(C)[C@@]3(F)[C@@H](O)C[C@]2(C)[C@@]1(O)C(=O)COP(=O)(O)O [Dex, dexamethasone sodium phosphate]
- peri-articular bone structure of the knee joint (micro-CT images): Bone damage was also found
